Assay results published in patent US12714107B2, “Dioxazolines and their use as herbicides” (BASF SE, priority 2020, dated 2026).
Some entries share one result that the patent states for a list of compounds. At least one structure is not confirmed: it was looked up by name or label, or the drawing left a doubt. Some compounds share one range, which may span the group rather than tell each member.

Columns and labels:
APESV = test: greenhouse herbicidal activity, pre-emergence method; type: in vivo, Apera spica-venti; settings: scale 0 to 100
Source text: (§1) The culture containers used were plastic flowerpots containing loamy sand with approximately 3.0% of humus as the substrate. The seeds of the test plants were sown separately for each species.
(§2) For the pre-emergence treatment, the active ingredients, which had been suspended or emulsified in water, were applied directly after sowing by means of finely distributing nozzles. The containers were irrigated gently to promote germination and growth and subsequently covered with transparent plastic hoods until the test plants had rooted. This cover caused uniform germination of the test plants, unless this had been impaired by the active ingredients. For the post-emergence treatment, the test plants were first grown to a height of 3 to 15 cm, depending on the plant habit, and only then treated with the active ingredients which had been suspended or emulsified in water. For this purpose, the test plants were either sown directly and grown in the same containers, or they were first grown separately as seedlings and transplanted into the test containers a few days prior to treatment.
(§3) Depending on the species, the test plants were kept at 10-25° C. or 20-35° C., respectively. The test period extended over 2 to 4 weeks. During this time, the test plants were tended, and their response to the individual treatments was evaluated.
(§4) Evaluation was carried out using a scale from 0 to 100. 100 means no emergence of the test plants, or complete destruction of at least the aerial moieties, and 0 means no damage, or normal course of growth. A good herbicidal activity is given at values of 80 to 90 and a very good herbicidal activity is given at values of 90 to 100.
(§5) The test plants used in the greenhouse experiments were of the following species: […]

ECHCG [1] = test: as above; type: in vivo, Echinocloa crus-galli; settings: scale 0 to 100
Source text: as §1, §2, §3, §4, §5

SETVI = test: greenhouse herbicidal activity, post-emergence method; type: in vivo, Setaria viridis; settings: scale 0 to 100
Source text: as §1, §2, §3, §4, §5

ALOMY = test: as above; type: in vivo, Alopercurus myosuroides; settings: scale 0 to 100
Source text: as §1, §2, §3, §4, §5

AVEFA = test: as above; type: in vivo, Avena fatua; settings: application rate 0,500 kg/ha, scale 0 to 100
Source text: as §1, §2, §3
(§6) Evaluation was carried out using a scale from 0 to 100. […]

ECHCG [2] = test: as above; type: in vivo, Echinocloa crus-galli; settings: application rate 1,000 kg/ha, scale 0 to 100
Source text: as §1, §2, §3, §6

AMARE [3] = test: as above; type: in vivo, Amaranthus retroflexus; settings: application rate 1,000 kg/ha, scale 0 to 100
Source text: as §1, §2, §3, §6

AMARE [4] = test: greenhouse herbicidal activity, pre-emergence method; type: in vivo, Amaranthus retroflexus; settings: application rate 0,250 kg/ha, scale 0 to 100
Source text: as §1, §2, §3, §6

Compound | herbicidal activity against APESV (APESV; application rate 0,500 kg/ha) | herbicidal activity against ECHCG (ECHCG [1]; application rate 0,500 kg/ha) | herbicidal activity against ALOMY (ALOMY; application rate 0,500 kg/ha) | herbicidal activity against AVEFA (AVEFA) | herbicidal activity against APESV (APESV; application rate 0,250 kg/ha) | herbicidal activity against AMARE (AMARE [4]) | herbicidal activity against SETVI (SETVI; application rate 0,250 kg/ha) | herbicidal activity against ALOMY (ALOMY; application rate 0,250 kg/ha) | also measured
COC(=O)C1CCC(NC(=O)C2(C)ON=C(c3cc(F)cc(F)c3)O2)C1 (stereo not shown) [compound 15] | very good (a very good herbicidal activity is given at values of 90 to 100) | very good (a very good herbicidal activity is given at values of 90 to 100) | very good (a very good herbicidal activity is given at values of 90 to 100) | very good (a very good herbicidal activity is given at values of 90 to 100) |  |  |  |  | herbicidal activity against SETVI (SETVI; application rate 0,500 kg/ha): good (A good herbicidal activity is given at values of 80 to 90)
COC(=O)C1CC(NC(=O)C2(C)ON=C(c3cc(F)cc(F)c3)O2)C1 (stereo not shown) [compound 16] | very good (a very good herbicidal activity is given at values of 90 to 100) | very good (a very good herbicidal activity is given at values of 90 to 100) | very good (a very good herbicidal activity is given at values of 90 to 100) | very good (a very good herbicidal activity is given at values of 90 to 100) |  |  |  |  | 
COC(=O)C1C=CC(NC(=O)C2(C)ON=C(c3cc(F)cc(F)c3)O2)C1 (stereo not shown) [compound 18] |  |  |  |  |  |  |  |  | herbicidal activity against APESV (APESV; application rate 1,000 kg/ha): very good (a very good herbicidal activity is given at values of 90 to 100); herbicidal activity against ECHCG (ECHCG [1]; application rate 1,000 kg/ha): very good (a very good herbicidal activity is given at values of 90 to 100); herbicidal activity against ECHCG (ECHCG [2]): very good (a very good herbicidal activity is given at values of 90 to 100); herbicidal activity against AMARE (AMARE [3]): very good (a very good herbicidal activity is given at values of 90 to 100); herbicidal activity against SETVI (SETVI; application rate 1,000 kg/ha): very good (a very good herbicidal activity is given at values of 90 to 100)
COC(=O)C1C=CC(NC(=O)C2(C(F)(F)F)ON=C(c3cc(Cl)cc(Cl)c3)O2)C1 (stereo not shown) [compound 19] |  |  |  |  | very good (a very good herbicidal activity is given at values of 90 to 100) | good (A good herbicidal activity is given at values of 80 to 90) | very good (a very good herbicidal activity is given at values of 90 to 100) | very good (a very good herbicidal activity is given at values of 90 to 100) | 
C=CC1(C(=O)NC2C=CC(C(=O)OC)C2)ON=C(c2cc(Cl)cc(Cl)c2)O1 (stereo not shown) [compound 111] |  |  |  |  | very good (a very good herbicidal activity is given at values of 90 to 100) | good (A good herbicidal activity is given at values of 80 to 90) | very good (a very good herbicidal activity is given at values of 90 to 100) | very good (a very good herbicidal activity is given at values of 90 to 100) | 
